Laboratory results as given in paper PMC4326925.
For at least one entry, the source does not settle the construct or the ends of the probe. Where cells or extracts were used, other partners may take part.

Sequences of proteins named here, by UniProt entry; tags and fusion partners are left off.
UniProt P05412, whole entry: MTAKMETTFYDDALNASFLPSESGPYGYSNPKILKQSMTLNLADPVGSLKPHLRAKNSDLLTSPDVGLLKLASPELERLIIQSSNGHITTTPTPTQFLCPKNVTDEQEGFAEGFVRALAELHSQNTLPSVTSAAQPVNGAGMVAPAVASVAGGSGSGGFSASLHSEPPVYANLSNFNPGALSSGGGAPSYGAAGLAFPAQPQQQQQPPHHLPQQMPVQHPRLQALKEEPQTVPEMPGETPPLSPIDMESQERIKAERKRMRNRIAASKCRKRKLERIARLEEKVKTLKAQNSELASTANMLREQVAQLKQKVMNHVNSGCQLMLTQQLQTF

Molecular target: c-Jun (human (primary dermal fibroblasts, Lat-A treated)) (UniProt P05412)
Assay: EMSA coupled with Western blot of excised shifted band
Settings: nuclear extract of Lat-A treated fibroblasts (30 nM, 24 h), complex abolished by excess unlabeled wild-type AP-1 probe; 5 ug nuclear extract, ~2x10^5 cpm probe, on ice 30 min; 4% polyacrylamide gel in TBE; binding buffer, salt and pH not stated (as in Quan et al., 2001); protein in an extract; label: 5'-32P

## ATAAAGCATGAGTCAGACAGCTC (double strand) [MMP-1 promoter AP-1 probe]
  binding result: binds
